Values quoted from earlier work, collected in patent US7880059B2, “Production of proanthocyanidins to improve forage quality” (The Samuel Roberts Noble Foundation, priority 2007, dated 2011).
For at least one compound, name, drawing or mass did not settle the structure.

Target: T1, UGT78G1 (Medicago truncatula, UniProt A6XNC6)
T1 sequence (A6XNC6 1-454): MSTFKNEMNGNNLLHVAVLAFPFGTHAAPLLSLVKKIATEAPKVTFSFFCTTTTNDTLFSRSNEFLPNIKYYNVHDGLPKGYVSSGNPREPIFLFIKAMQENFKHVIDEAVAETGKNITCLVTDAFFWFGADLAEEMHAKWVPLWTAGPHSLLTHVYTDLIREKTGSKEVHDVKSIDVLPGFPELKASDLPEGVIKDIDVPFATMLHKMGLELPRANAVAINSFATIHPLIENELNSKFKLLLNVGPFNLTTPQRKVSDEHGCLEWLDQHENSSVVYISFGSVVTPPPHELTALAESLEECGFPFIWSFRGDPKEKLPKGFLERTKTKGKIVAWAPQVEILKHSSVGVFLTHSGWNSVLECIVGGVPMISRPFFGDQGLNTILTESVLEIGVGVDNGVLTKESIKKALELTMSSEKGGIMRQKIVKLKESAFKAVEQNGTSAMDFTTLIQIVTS
Set-up: hexahistidine tag with thrombin cleavage site (pET28a(+)) (N); made in house; host or cells: E. coli BL21 (DE3)
Conditions: in vitro (Modolo et al, 2007); cited from earlier work

In the case of Oc1cc(O)c2cc(O)c(-c3cc(O)c(O)c(O)c3)[o+]c2c1 [delphinidin], the “activity of UGT78G1 with substrate” value is given as “shows activity”.
